Measurements reported in PubChem BioAssay AID743121 (NCATS, 2013)

Test: 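Partners whose loss is lethal together with topoisomerase I blockade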 (primary screen)
Cell system: MDA-MB-231 cells, a human breast cancer line
Knock-down reagent: single siRNA against human genes, 20 nM siRNA (0.8 pmol per well)
Duration: 120 h (drug added 48 h after transfection, read 72 h later)
Conditions: camptothecin 20 nM (about EC30) for 72 h; vehicle 0.1% DMSO in parallel plates
Read-out: 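Cell viability by ATP luminescence (CellTiter-Glo) as % of non-targeting siRNA wells, and the log2 ratio of viability without drug over viability with camptothecin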
Direction: log2 vehicle/camptothecin viability: higher = stronger sensitisation to camptothecin; viability with camptothecin and viability without drug: higher = more viable cells
Active means: 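Each gene scored by redundant siRNA activity (RSA) over its individual siRNA ratios; a gene is called active at p < 0.001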
Here is one part, drawn at random, of about 26,000 deposited reagents. Over the whole deposit, 167 (0.63%) got an active call. 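Calls are per gene from RSA p-values that are not deposited; an individual active-marked siRNA can sensitise only weakly.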

gene symbol | PubChem SID | log2 vehicle/camptothecin viability | viability with camptothecin (% of control) | viability without drug (% of control) | Outcome
KDM1B | SID164592812 | -0.164 | 90.5 | 80.8 | inactive
KDM1B | SID164592814 | -0.108 | 90.9 | 84.4 | inactive
KDM1B | SID164592815 | -0.0852 | 120 | 113 | inactive
KDM1B | SID164592816 | -0.187 | 44.6 | 39.2 | inactive
DGKH | SID164578746 | -0.0854 | 84.2 | 79.4 | inactive
DGKH | SID164578747 | -0.0227 | 85.9 | 84.6 | inactive
DGKH | SID164578749 | -0.981 | 68.9 | 34.9 | inactive
DGKH | SID164578751 | -0.254 | 67.3 | 56.5 | inactive
PJA1 | SID164501774 | 0.057 | 70.3 | 73.1 | inactive
PJA1 | SID164501775 | 0.00493 | 71.1 | 71.4 | inactive
PJA1 | SID164501776 | 0.1 | 103 | 111 | inactive
PJA1 | SID164501777 | 0.0115 | 57.3 | 57.8 | inactive
FER | SID164364597 | -0.196 | 101 | 88.2 | inactive
FER | SID164364598 | -0.144 | 77.4 | 70.1 | inactive
FER | SID164364599 | -0.274 | 86.8 | 71.8 | inactive
FER | SID164364602 | -0.209 | 85 | 73.6 | inactive
GALK2 | SID164365941 | -0.451 | 73.1 | 53.4 | inactive
GALK2 | SID164365943 | 0.795 | 51.6 | 89.5 | inactive
GALK2 | SID164365945 | -0.317 | 71.8 | 57.6 | inactive
GALK2 | SID164365947 | -0.0488 | 75.8 | 73.3 | inactive
WSB2 | SID164487437 | 0.622 | 57.7 | 88.8 | inactive
WSB2 | SID164487439 | 0.157 | 70.2 | 78.3 | inactive
WSB2 | SID164487442 | -0.308 | 62 | 50.1 | inactive
LRSAM1 | SID164550462 | -0.0719 | 44.5 | 42.4 | inactive
LRSAM1 | SID164550463 | 0.621 | 50 | 76.9 | inactive
LRSAM1 | SID164550466 | -0.158 | 93.1 | 83.4 | inactive
EDF1 | SID164399423 | -0.345 | 71.1 | 56 | inactive
EDF1 | SID164399425 | -0.352 | 60.8 | 47.6 | inactive
EDF1 | SID164399428 | 0.186 | 61.1 | 69.5 | inactive
NRK | SID164586471 | -0.5 | 95.9 | 67.8 | inactive
NRK | SID164586474 | 0.225 | 39 | 45.6 | inactive
NRK | SID164586475 | -0.028 | 77.8 | 76.3 | inactive
NRK | SID164586476 | -0.15 | 95 | 85.6 | inactive
CCK | SID164356858 | 0.0742 | 91.4 | 96.2 | inactive
CCK | SID164356860 | -0.349 | 64.5 | 50.6 | inactive
CCK | SID164356863 | 0.464 | 67.7 | 93.3 | inactive
MDGA2 | SID164578839 | -0.283 | 75.9 | 62.4 | inactive
MDGA2 | SID164578840 | -0.0975 | 120 | 112 | inactive
MDGA2 | SID164578842 | -0.19 | 67.1 | 58.9 | inactive
PRSS21 | SID164414423 | 0.125 | 48.7 | 53.1 | inactive
PRSS21 | SID164414425 | 0.681 | 29 | 46.5 | inactive
PRSS21 | SID164414427 | 0.0909 | 97.8 | 104 | inactive
PRSS21 | SID164414429 | 1.11 | 29.2 | 63.3 | inactive
MAP3K21 | SID164544997 | -0.327 | 62.1 | 49.5 | inactive
MAP3K21 | SID164544999 | -0.332 | 99.7 | 79.2 | inactive
MAP3K21 | SID164545001 | -0.111 | 103 | 95.5 | inactive
MAP3K21 | SID164545002 | -0.114 | 95.2 | 87.9 | inactive
FBP2 | SID164399835 | -0.216 | 114 | 97.8 | inactive
FBP2 | SID164399836 | -0.698 | 78.7 | 48.6 | inactive
FBP2 | SID164399837 | -0.244 | 120 | 101 | inactive
FBP2 | SID164399839 | -0.0885 | 73.3 | 68.9 | inactive
MIB1 | SID164494727 | -0.304 | 94 | 76.1 | inactive
MIB1 | SID164494728 | 0.137 | 48.5 | 53.4 | inactive
MIB1 | SID164494733 | -0.234 | 129 | 110 | inactive
MIB1 | SID164494734 | 0.0976 | 37.9 | 40.6 | inactive
CENPN | SID164487183 | -0.137 | 107 | 97.1 | inactive
CENPN | SID164487184 | -0.435 | 78.2 | 57.9 | inactive
CENPN | SID164487185 | -0.143 | 91.9 | 83.2 | inactive
CENPN | SID164487186 | -0.207 | 49.3 | 42.7 | inactive
CENPN | SID164487187 | -0.666 | 39.4 | 24.8 | inactive
CENPN | SID164487192 | 0.147 | 64.5 | 71.4 | inactive
CENPN | SID164487193 | 0.283 | 87.3 | 106 | inactive
CENPN | SID164487196 | -0.435 | 113 | 83.4 | inactive
SSTR1 | SID164389930 | -0.177 | 68.6 | 60.7 | inactive
SSTR1 | SID164389931 | -0.178 | 82.3 | 72.7 | inactive
SSTR1 | SID164389932 | -0.144 | 45.1 | 40.8 | inactive
SSTR1 | SID164389934 | -0.584 | 74.4 | 49.6 | inactive
MMP9 | SID164375810 | -0.66 | 74.6 | 47.2 | active
MMP9 | SID164375812 | 1.3 | 29.7 | 73 | active
MMP9 | SID164375814 | 0.953 | 35.5 | 68.8 | active
MMP9 | SID164375816 | 0.896 | 15 | 27.9 | active
CXCL5 | SID164387414 | -0.0576 | 94.7 | 91 | inactive
CXCL5 | SID164387415 | -0.063 | 93.9 | 89.9 | inactive
CXCL5 | SID164387418 | -0.248 | 71.2 | 60 | inactive
CYP4V2 | SID164617098 | 0.12 | 75.5 | 82 | inactive
CYP4V2 | SID164617099 | -0.0718 | 85 | 80.9 | inactive
CYP4V2 | SID164617100 | 0.045 | 109 | 113 | inactive
CYP4V2 | SID164617101 | -0.229 | 82.4 | 70.3 | inactive
NPEPL1 | SID164532834 | -0.0914 | 70 | 65.7 | inactive
NPEPL1 | SID164532835 | 0.0157 | 49.6 | 50.1 | inactive
NPEPL1 | SID164532836 | -0.272 | 43.8 | 36.3 | inactive
PRKACG | SID164382513 | 0.162 | 64.2 | 71.8 | inactive
PRKACG | SID164382514 | -0.465 | 95.7 | 69.3 | inactive
PRKACG | SID164382515 | -0.307 | 108 | 86.9 | inactive
PRKACG | SID164382516 | -0.212 | 91.7 | 79.1 | inactive
MTMR4 | SID164401766 | -0.164 | 57.6 | 51.4 | inactive
MTMR4 | SID164401769 | -0.234 | 95.8 | 81.5 | inactive
MTMR4 | SID164401770 | -0.247 | 75.7 | 63.8 | inactive
MTMR4 | SID164401771 | 0.00192 | 82.3 | 82.4 | inactive
